Laboratory results from PubChem BioAssay AID493014 (National Center for Advancing Translational Sciences (NCATS), 2011).
Values joined by “and” are separate entries in the source; they are usually repeats but may differ in a detail not shown here. Identical values can stand only once. The list shows a part of the results. These are further read-outs of the screen, such as a control signal, another cell line or another target. No call is given for them. Most of these compounds were active or inconclusive in the main read-out, so they are no random draw. Words in brackets tell the shape of the fitted curve; partial curves, single points and poor fits give uncertain potencies.

Assay: qHTS Assay to Find Inhibitors of Chronic Active B-Cell Receptor Signaling
Conditions: ABC-DLBCL IkBa-CBG/CBR reporter, luminescence ratio (green luciferase fused to IkBa over red control in TMD8 lymphoma cells), 4 h
Method in brief: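 Doxycycline induced both beetle luciferases in TMD8 lymphoma cells; IKK-driven degradation limits the IkappaBalpha-fused green signal, while red luminescence normalises for cell number and nonspecific effects. Compounds tested up to 46 uM, 4 hrs.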

[1] = measured here: CBR red luminescence, cell number
[2] = measured here: IkBa-CBG green luminescence

Structure (SMILES) | AC50 [1] | AC50 [2]
S=C(Nc1ccccn1)c1ccccn1 | 35.5 µM [falling, single point] and 2.59 µM [rising, single point] | 6.31 µM [falling, full curve] and 2.91 µM [falling, full curve]
CCN1CCN(c2ccc(NC(=O)c3ccc4c(c3)[nH]c(=O)n4Cc3ccc(F)cc3)cc2)CC1 | 23.1 µM [falling, single point] | –
CCCNCC1C(Oc2ccc(Cl)cc2Cl)C(=O)N1c1cccc(C)c1C (stereo not drawn) | 35.5 µM [falling, single point] | –
CSc1nc2[nH]c3c(c2c2nnnn12)CCCC3 | 3.98 µM [rising, partial curve] | –
CCCn1c(SCC(=O)N2CCN(C(=O)c3ccco3)CC2)nc2ccccc2c1=O | 35.5 µM [falling, single point] | –
C=CCn1c(O)c(N=NC(=S)Nc2ccc(OC)cc2)c2ccccc21 | 6.51 µM [rising, single point] | –
Cc1ccc(NC(=O)CNC(=O)c2cccs2)c(O)c1 | 16.4 µM [falling, partial curve] | –
N#Cc1ccc(N2CCN(c3ccc(F)cc3)CC2)cc1 | 0.651 µM [rising, full curve] | –
Cc1cccc(NC(=O)c2ccc(C(=O)c3ccccc3)cc2)n1 | 16.4 µM [falling, partial curve] | –
CC(=O)Cn1ncc(Br)c(Br)c1=O | 7.08 µM [falling, partial curve, poor fit] | 5.62 µM [rising, full curve]
Cc1ccccc1-c1nc(Cc2ccc(Cl)cc2)no1 | 20.6 µM [rising, single point] | –
CN1/C(=C\C(=O)c2cccc([N+](=O)[O-])c2)Sc2ccccc21 | 3.16 µM [rising, partial curve, poor fit] | –
CCN1CCN(C(=O)c2cc3ccc(OC)cc3[nH]2)CC1 | 6.31 µM [rising, partial curve, poor fit] | –
COc1cc(C(=O)N(Cc2ccc(N(C)C)cc2)C2CCS(=O)(=O)C2)cc(OC)c1OC (stereo not drawn) | 12.6 µM [rising, single point] | –
COc1cc(C(=O)OCC(=O)c2c[nH]c3ccccc23)ccc1OCC(=O)N1CCOCC1 | 14.1 µM [falling, partial curve, poor fit] | –
COc1ccc(/C(N)=N/OC(=O)c2ccc(Br)o2)cc1 | 20 µM [rising, partial curve, poor fit] | –
COc1cc(/C=C/c2ccc3cccc(O)c3n2)cc(OC)c1OC | 7.08 µM [rising, partial curve] | 11.2 µM [falling, partial curve]
Nc1nnc(CC(=O)N/N=C/c2ccc(-c3ccccc3Cl)o2)s1 | 3.26 µM [rising, partial curve, poor fit] | –
COc1cccc(C(=O)Nc2cccc(-c3nnc(-c4ccco4)o3)c2)c1 | 8.2 µM [falling, partial curve] | –
CCn1c(SCC(=O)Nc2oc(C)c3c(C)n[nH]c(=O)c23)nc2sc(C)c(C)c2c1=O | 6.51 µM [rising, single point] | –

Structure (SMILES) | AC50 [1] | AC50 [2]
CCC(C)N(C(=O)COC(=O)c1cn(CC)c2nc(C)ccc2c1=O)C1CCS(=O)(=O)C1 (stereo not drawn) | 6.31 µM [falling, single point] | –
CN(C)CCSc1nnc2[nH]c3ccccc3c2n1 | 8.2 µM [falling, partial curve] | –
CC(C)OCCCNC(=O)COc1ccc2oc3c(c2c1)CCCC3 | 5.62 µM [rising, single point] | –
COc1cccc(NC(=S)N(CCc2c(C)[nH]c3ccccc23)Cc2ccco2)c1 | 0.651 µM [rising, full curve, poor fit] | –
CCOC(=O)c1c(C)nc2c(c1C)c(=O)oc1ccccc12 | 29.1 µM [rising, single point] | –
CC(=O)c1ccc(OCc2cc(C(=O)N(C)Cc3ncc(C)[nH]3)no2)cc1 | 0.0891 µM [rising, full curve, poor fit] | –
Cc1cccc(N/C(N)=N/c2nc(C)c(Cc3ccccc3)c(=O)[nH]2)c1 | 22.4 µM [rising, single point] | –
CN(C)CCCN=c1cc(-c2ccccc2)oc2ccc(Cl)cc12 | 0.794 µM [rising, full curve, poor fit] | –
O=C(CCCCCn1c(=S)[nH]c2ccccc2c1=O)N1CCOCC1 | 35.5 µM [falling, partial curve, poor fit] | –
COc1ccc(/C=N/Nc2cc(C)nc(-n3nc(C)cc3C)n2)cc1 | 0.259 µM [falling, full curve, poor fit] | –
Cc1cccc(OCC(=O)NCCCNC(=O)c2ccco2)c1 | 14.1 µM [falling, partial curve, poor fit] | –
CC1=NN(C(=O)c2ccccc2Cl)C(O)(c2ccccc2)C1 (stereo not drawn) | 2.24 µM [falling, full curve] | –
CCOc1cc(/C=N/NC(=O)c2ccccc2OCc2ccc(F)cc2)ccc1O | 7.31 µM [falling, partial curve, poor fit] | –
c1ccc(-c2noc(-c3ccc4c(c3)OCO4)n2)cc1 | 2.51 µM [falling, full curve, poor fit] | –
CC1(C(=O)OCC(=O)Nc2cccc(S(=O)(=O)NC3=NCCCCC3)c2)CC1(Cl)Cl (stereo not drawn) | 14.1 µM [falling, partial curve, poor fit] | –
COCCn1c(=S)[nH]c2sc3c(c2c1=O)CCCC3 | 35.5 µM [falling, single point] | –
O=C(Nc1cc(=O)[nH]c(=O)[nH]1)c1cccc(Br)c1 | 12.6 µM [rising, partial curve] | 22.4 µM [falling, single point]
C=CCc1cc(C=O)cc(OC)c1OCc1ccc(Cl)cc1 | 14.1 µM [rising, partial curve, poor fit] | –
O=S(=O)(NCCCCNS(=O)(=O)c1c(F)cccc1F)c1ccc2c(c1)OCCO2 | 23.1 µM [rising, single point] | –
